Data taken from PubChem BioAssay (EPA / NIEHS).
The shares of active, inactive and inconclusive entries below differ from those in the screen. For some of these results: A potency beside an inconclusive call is a rough fit, not a confirmed value. The source holds several records for some structures; these can differ, active in one and inactive in another. Calls of active or inactive are those of the source. The calls were made as follows: active = hit-call score of the fitted dose curve at least 0.9, where 1 is the maximum; inconclusive = response in the unintended direction; inactive = score below 0.9.

By UniProt entry, the sequences of proteins in these tests, tags left out. Where a name states a change or a piece, a line headed by the entry shows the natural chain unless it says otherwise.
UniProt P33261, whole entry, looked up: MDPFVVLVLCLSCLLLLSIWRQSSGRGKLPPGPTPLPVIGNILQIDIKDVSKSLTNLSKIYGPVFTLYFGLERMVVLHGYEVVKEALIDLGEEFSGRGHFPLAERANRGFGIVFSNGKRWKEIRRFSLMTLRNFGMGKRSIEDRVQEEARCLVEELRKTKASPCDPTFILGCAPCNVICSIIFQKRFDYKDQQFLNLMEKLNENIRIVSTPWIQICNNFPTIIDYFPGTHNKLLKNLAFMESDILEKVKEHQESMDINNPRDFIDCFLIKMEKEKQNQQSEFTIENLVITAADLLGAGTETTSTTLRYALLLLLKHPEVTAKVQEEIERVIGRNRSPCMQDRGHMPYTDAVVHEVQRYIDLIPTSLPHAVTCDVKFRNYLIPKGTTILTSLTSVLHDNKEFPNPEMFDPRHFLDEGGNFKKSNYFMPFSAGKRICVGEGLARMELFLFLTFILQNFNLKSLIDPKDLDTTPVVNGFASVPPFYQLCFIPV
UniProt P11712, whole entry, looked up: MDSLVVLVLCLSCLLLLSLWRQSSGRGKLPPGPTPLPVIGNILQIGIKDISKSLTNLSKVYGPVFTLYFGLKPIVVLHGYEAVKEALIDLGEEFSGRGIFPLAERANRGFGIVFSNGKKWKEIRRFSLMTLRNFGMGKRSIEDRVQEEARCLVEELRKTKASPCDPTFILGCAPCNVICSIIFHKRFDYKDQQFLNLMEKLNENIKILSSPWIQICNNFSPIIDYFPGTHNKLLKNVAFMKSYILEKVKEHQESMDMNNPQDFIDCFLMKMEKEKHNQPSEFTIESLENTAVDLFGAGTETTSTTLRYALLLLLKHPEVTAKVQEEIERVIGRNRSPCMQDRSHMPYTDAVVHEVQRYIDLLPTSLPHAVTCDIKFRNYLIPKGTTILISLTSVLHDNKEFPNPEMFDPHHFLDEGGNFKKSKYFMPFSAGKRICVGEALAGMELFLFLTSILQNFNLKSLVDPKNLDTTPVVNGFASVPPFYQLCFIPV
UniProt Q9UNQ0: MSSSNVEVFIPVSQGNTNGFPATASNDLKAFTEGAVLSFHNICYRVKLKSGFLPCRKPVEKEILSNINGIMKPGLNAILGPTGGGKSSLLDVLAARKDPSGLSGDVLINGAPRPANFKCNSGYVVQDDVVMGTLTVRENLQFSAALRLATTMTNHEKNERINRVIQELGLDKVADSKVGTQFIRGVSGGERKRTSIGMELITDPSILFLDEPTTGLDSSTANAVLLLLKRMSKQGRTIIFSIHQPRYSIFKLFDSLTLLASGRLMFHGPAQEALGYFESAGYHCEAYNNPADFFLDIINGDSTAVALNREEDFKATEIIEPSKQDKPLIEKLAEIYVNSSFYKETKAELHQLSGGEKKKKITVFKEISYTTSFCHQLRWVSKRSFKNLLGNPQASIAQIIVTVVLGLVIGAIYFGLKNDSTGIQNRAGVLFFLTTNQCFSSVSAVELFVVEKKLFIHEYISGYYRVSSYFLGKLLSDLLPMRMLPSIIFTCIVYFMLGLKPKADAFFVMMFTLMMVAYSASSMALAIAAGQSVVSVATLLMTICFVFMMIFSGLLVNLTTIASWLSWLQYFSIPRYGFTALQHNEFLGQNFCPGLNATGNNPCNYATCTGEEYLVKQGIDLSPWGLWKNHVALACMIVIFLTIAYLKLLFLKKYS

Legend:
[1] = read-out: sulfotransferase (SULT2A), SULT2A1 (gene 6822); test: CLD_SULT2A_6hr: CellzDirect (CLD) Gene Expression Assay for sulfotransferase (SULT2A) at 6 hours (AID 2283669);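 also: hits raise transcript level above the DMSO vehicle baseline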
In short: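 Primary human hepatocytes from two donor preparations were dosed daily with chemicals or 0.2% DMSO and harvested at 6 h. Transcript induction read by qNPA chemiluminescence, fitted for gain of signal relative to DMSO; morphology-based cytotoxicity annotated.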

[2] = CLD_ACTIN_24hr: CellzDirect (CLD) Gene Expression Assay for Baseline Control (Actin) at 24 hours (AID 2283670)
In short: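 Primary human hepatocytes dosed over multiple concentrations with 0.2% DMSO vehicle; actin mRNA measured at 24 h by qNPA chemiluminescence. Background control endpoint, fitted as gain of signal versus DMSO.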

[3] = read-out: xenobiotic metabolism (CYP1A1), CYP1A1 (gene 1543); test: CLD_CYP1A1_24hr: CellzDirect (CLD) Gene Expression Assay for xenobiotic metabolism (CYP1A1) at 24 hours (AID 2283673);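 also: CYP1A1 mRNA level by quantitative nuclease protection with chemiluminescence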
In short: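 Primary human hepatocytes dosed daily with fresh solutions in 0.2% DMSO vehicle. mRNA measured at 24 h by quantitative nuclease protection assay with chemiluminescence; gain-of-signal fit versus DMSO, with morphology-based cytotoxicity flags.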

[4] = read-out: Cytochrome P450 2C19 (Homo sapiens) (UniProt P33261); test: CLD_CYP2C19_6hr: CellzDirect (CLD) Gene Expression Assay for xenobiotic metabolism (CYP2C19) at 6 hours (AID 2283678)
In short: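 Primary human hepatocytes from two donor preparations were dosed daily, with 0.2% DMSO as vehicle, and harvested 6 h after dosing. CYP2C19 mRNA induction was measured by qNPA chemiluminescence and fitted as gain of signal against DMSO.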

[5] = read-out: ABC Transporter (ABCB1), ABCB1 (gene 5243); test: CLD_ABCB1_24hr: CellzDirect (CLD) Gene Expression Assay for ABC Transporter (ABCB1) at 24 hours (AID 2283684)
In short: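 Primary human hepatocytes, two donor preparations, dosed daily with fresh solutions; vehicle 0.2% DMSO; harvested at 24 h. ABCB1 mRNA measured by quantitative nuclease protection assay (chemiluminescence); morphology-based cytotoxicity annotated.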

[6] = read-out: Cytochrome P450 2C9 (Homo sapiens) (UniProt P11712); test: CLD_CYP2C9_24hr: CellzDirect (CLD) Gene Expression Assay for xenobiotic metabolism (CYP2C9) at 24 hours (AID 2283688);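 also: potency for induction meaning a rise in CYP2C9 mRNA over DMSO vehicle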
In short: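 Primary human hepatocytes from two donor preparations, dosed daily for two days at multiple concentrations; vehicle 0.2% DMSO. CYP2C9 mRNA induction at 24 h measured by qNPA chemiluminescence relative to DMSO; cytotoxicity annotated from morphology.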

[7] = read-out: HMG-CoA synthase (HMGCS2), HMGCS2 (gene 3158); test: CLD_HMGCS2_24hr: CellzDirect (CLD) Gene Expression Assay for HMG-CoA synthase (HMGCS2) at 24 hours (AID 2283691)
In short: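 Primary human hepatocytes from two donor preparations, dosed daily with fresh solutions; vehicle 0.2% DMSO, 24 h harvest. HMGCS2 mRNA quantified by qNPA with S1 nuclease digestion and chemiluminescence; gain fitted versus DMSO, cytotoxicity annotated by morphology.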

[8] = read-out: ABC Transporter (ABCB1), ABCB1 (gene 5243); test: CLD_ABCB1_48hr: CellzDirect (CLD) Gene Expression Assay for ABC Transporter (ABCB1) at 48 hours (AID 2283695)
In short: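 Primary human hepatocytes from two donor preparations dosed daily on two consecutive days with 0.2% DMSO vehicle. Harvest at 48 h. ABCB1 mRNA quantified by qNPA with chemiluminescence and fitted for gain of signal versus DMSO.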

[9] = read-out: glucuronosyltransferase (UGT1A1), UGT1A1 (gene 54658); test: CLD_UGT1A1_24hr: CellzDirect (CLD) Gene Expression Assay for glucuronosyltransferase (UGT1A1) at 24 hours (AID 2283696)
In short: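 Primary human hepatocytes from two donor preparations were dosed (0.2% DMSO vehicle) and harvested at 24 h; UGT1A1 mRNA induction was quantified by chemiluminescent qNPA, fitted as gain relative to DMSO.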

[10] = read-out: xenobiotic metabolism (CYP1A2), CYP1A2 (gene 1544); test: CLD_CYP1A2_48hr: CellzDirect (CLD) Gene Expression Assay for xenobiotic metabolism (CYP1A2) at 48 hours (AID 2283703)
In short: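 Primary human hepatocytes from two donor preparations were dosed daily for two days at multiple concentrations in 0.2% DMSO vehicle. CYP1A2 mRNA was measured at 48 hours by chemiluminescent quantitative nuclease protection assay, with gain of signal fitted versus DMSO and cytotoxicity annotated from morphology.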

[11] = read-out: Broad substrate specificity ATP-binding cassette transporter ABCG2 (Homo sapiens) (UniProt Q9UNQ0); test: CLD_ABCG2_48hr: CellzDirect (CLD) Gene Expression Assay for ABC Transporter (ABCG2) at 48 hours (AID 2283704)
In short: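 Primary human hepatocytes from two donors, dosed daily for 2 days, 0.2% DMSO vehicle, several concentrations. ABCG2 mRNA at 48 h by qNPA chemiluminescence, gain fitted versus DMSO; cytotoxicity flagged by morphology.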

[12] = read-out: organic anion transporter (SLCO1B1), SLCO1B1 (gene 10599); test: CLD_SLCO1B1_48hr: CellzDirect (CLD) Gene Expression Assay for organic anion transporter (SLCO1B1) at 48 hours (AID 2283707)
In short: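 Primary human hepatocytes from two donor preparations dosed daily for two days with multiple concentrations, 0.2% DMSO vehicle. SLCO1B1 mRNA at 48 h by quantitative nuclease protection assay, chemiluminescence; gain-of-signal fitted versus DMSO.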

[13] = read-out: alkyl and aryl transferase (GSTA2), GSTA2 (gene 2939); test: CLD_GSTA2_48hr: CellzDirect (CLD) Gene Expression Assay for alkyl and aryl transferase (GSTA2) at 48 hours (AID 2283708);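 also: active means mRNA induction above DMSO vehicle baseline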
In short: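 Primary human hepatocytes dosed daily for two days (0.2% DMSO vehicle), harvested at 48 h. GSTA2 mRNA induction measured by quantitative nuclease protection assay with chemiluminescent imaging, fitted for gain of signal relative to DMSO.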

[14] = read-out: HMG-CoA synthase (HMGCS2), HMGCS2 (gene 3158); test: CLD_HMGCS2_48hr: CellzDirect (CLD) Gene Expression Assay for HMG-CoA synthase (HMGCS2) at 48 hours (AID 2283711)
In short: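 Primary human hepatocytes from two donors dosed daily for two days, 0.2% DMSO vehicle. HMGCS2 mRNA measured 48 h after dosing by quantitative nuclease protection assay with chemiluminescent read-out; induction fitted relative to DMSO, cytotoxicity flagged by microscopy.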

[15] = ACEA_AR_agonist_AUC_viability: ACEA Biosciences xCELLigence Real-Time Cell Analysis on Androgen Receptor Agonism for Viability (AID 2283775);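 also: viability read 80 hours after compound addition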
In short: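 Read-out is area under the impedance curve at 80 h post-dose in 22Rv1 cells, with DMSO as baseline and signal loss taken as reduced viability. Compounds ran in duplicate from 100 uM final.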

[16] = ACEA_ER_AUC_viability: ACEA Biosciences xCELLigence Real-Time Cell Analysis on Estrogen Receptor Agonism for Viability (AID 2283782);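 also: continuous compound exposure with impedance area under curve over 80 h; hit means loss of impedance signal meaning reduced cell growth or viability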
In short: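 T-47D human breast cells in phenol red-free RPMI1640 with 10% charcoal-stripped FBS were dosed with an 8-point 1:4 dilution series from 100 uM top final concentration, in duplicate. Impedance-based growth was followed for 80 h; AUC analysed versus DMSO.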

[17] = CCTE_Harrill_HTTr_CellCount_MCF7: CCTE's Cell Proliferation Assessment for the High-Throughput Transcriptomics (HTTr) Platform, Harrill Lab (AID 2284012);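 also: cells exposed to compound for six hours; intended direction is loss of nuclei count meaning fewer cells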
In short: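 MCF-7 cells were exposed for 6 h to an eight-point dilution series; Hoechst-labeled nuclei were counted by high content imaging. Curves were fitted bidirectionally against DMSO as negative control and baseline, with signal loss indicating reduced cell count.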

[18] = CCTE_Deisenroth_AIME_384WELL_CTox_Inactive: Cytotoxicity Assessment (CTOX) in CCTE's 384-well Estrogen Receptor Transactivation Assay without AIME metabolic competence (metabolism negative), Deisenroth Lab (AID 2284039);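 also: cell viability via live-cell protease substrate cleaved to fluorescent probe; cells exposed 24 h to medium preincubated 2 h with alginate-water beads without S9; loss of fluorescence signal means loss of viability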
In short: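 VM7Luc4E2 cells, metabolism-negative arm: test chemicals (0.002–200 uM, 10 points) pre-incubated 2 h with alginate-water microspheres, then medium transferred to cells for 24 h. Viability read as protease-substrate cleavage to fluorescent probe; loss-of-signal, bidirectional fitting.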

[19] = CCTE_Shafer_MEA_dev_LDH: CCTE's Lactate Dehydrogenase Assay for Cytotoxicity in the Neural Network Formation Assay, Shafer Lab (AID 2284068);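 also: exposure for twelve days from plating with re-dosing on DIV 5 and 9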
In short: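 Primary rat cortical neurons were plated on PEI/laminin MEA plates and exposed from day 0 for twelve days, with compound renewed at DIV 5 and 9. Cytotoxicity was determined by spectrophotometric LDH assay relative to DMSO.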

[20] = CCTE_Shafer_MEA_dev_AB: CCTE's Alamar Blue Assay for Cytotoxicity in the Neural Network Formation Assay, Shafer Lab (AID 2284083);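 also: twelve days of exposure from plating with re-dosing on DIV 5 and 9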
In short: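 Primary rat cortical neurons on PEI-coated 48-well MEA plates, 1.5 x 10^5 cells/well in laminin drop; compound exposure from day 0 of plating for twelve days, renewed at medium changes on DIV 5 and 9. Viability read as resazurin reduction by fluorescence, relative to DMSO.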

[21] = CCTE_Mundy_HCI_hN2_NOG_NeuriteCount: CCTE's Neurite Outgrowth Assay in human hN2 cells for Neurite Count, Mundy Lab (AID 2284219)
In short: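 In this morphology assay, hNP1-derived neurons received test chemical 2 h post-plating and were fixed two days later in warm paraformaldehyde/sucrose containing Hoechst 33342. Neurites, labelled by rabbit anti-βIII-tubulin (1:800) and Alexa Fluor-488 (1:500), were counted automatically.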

[22] = CCTE_Mundy_HCI_hN2_NOG_NeuronCount: CCTE's Neurite Outgrowth Assay in human hN2 cells for Neuron Count, Mundy Lab (AID 2284221)
In short: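 Read-out is the number of betaIII-tubulin-positive neurons imaged by automated high-content analysis, with DMSO as negative control.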

[23] = CCTE_Mundy_HCI_hNP1_Pro_ResponderAvgInten: CCTE's Proliferation Assay in human neuroprogenitor cells, Mundy Lab (AID 2284224);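 also: human neural progenitor cells hNP1 derived from WA09 embryonic stem cells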
In short: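 Human neuroprogenitors (hNP1, WA09 lineage) receive test chemical after 40 to 44 hours of attachment. A four-hour BrdU pulse begins twenty hours later, followed by fixation and high content imaging; signal is referenced to DMSO controls.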

[24] = CCTE_Mundy_HCI_Cortical_Synap_Neur_Matur_NeuronCount: CCTE's Synaptogenesis and Neurite Maturation Assay in rat cortical cells for Neuron Count, Mundy Lab (AID 2284242);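 also: neuron number from Hoechst nuclei and MAP2 staining by high-content imaging; hits reduce neuron count versus DMSO baseline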
In short: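 Rat primary cortical cells received AraC at DIV 5 to arrest glia, then were dosed with chemicals at DIV 7 through DIV 12. Fixed cells were stained for nuclei, MAP2 and synaptophysin, and neurons were counted by high-content imaging relative to DMSO.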

[25] = IUF_NPC4_neurite_area_120hr: Leibniz Research Institute for Environmental Medicine (IUF) 120-hour Neuronal Morphology Assay for Neurite Area (NPC4) (AID 2284305)
In short: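 Human fetal cortex-derived neural progenitor spheres (0.3 mm, GW 16-19) plated on poly-D-lysine/laminin in N2 differentiation medium and exposed from day 0 for 120 h across 7 concentrations plus solvent control. Neurite area is mean pixel area per TUBB3-positive neuron via skeletonization, analysed relative to DMSO.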

[26] = CCTE_Mundy_HCI_iCellGluta_NOG_NeuriteCount: CCTE's Neurite Outgrowth Assay in iCellGluta cells for Neurite Count, Mundy Lab (AID 2284342);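 also: chemical exposure about 48 hours starting 2 hours after plating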

Measured: AC50

COP(=O)(OC)OC=C(Cl)Cl
active: [19] 3.8 µM | [22] 0.355 µM | [25] 13.3 µM | [26] 49 µM
inconclusive: [1] 1.89 µM | [4] 20 µM | [6] 5.4 µM | [14] 20 µM | [15] 25 µM | [16] 25 µM | [17] 22.5 µM | [18] 0.00017 µM | [20] 0.0921 µM | [21] 50 µM | [23] 0.000104 µM | [24] 0.0001 µM
inactive: [2] | [3] | [5] | [7] | [8] | [9] | [10] | [11] | [12] | [13] | [19] | [23]
